Data as given in the supplement of paper PMC12819154, “High-throughput peptide-centric local stability assay extends protein–ligand identification to membrane proteins, tissues and bacteria” (Nature Structural & Molecular Biology, 2025).
The other results are listed elsewhere or left out. Small differences around the control level are noise.

By UniProt entry, the sequences of proteins in these tests, tags left out. Where a name states a change or a piece, a line headed by the entry shows the natural chain unless it says otherwise.
UniProt Q96JA3: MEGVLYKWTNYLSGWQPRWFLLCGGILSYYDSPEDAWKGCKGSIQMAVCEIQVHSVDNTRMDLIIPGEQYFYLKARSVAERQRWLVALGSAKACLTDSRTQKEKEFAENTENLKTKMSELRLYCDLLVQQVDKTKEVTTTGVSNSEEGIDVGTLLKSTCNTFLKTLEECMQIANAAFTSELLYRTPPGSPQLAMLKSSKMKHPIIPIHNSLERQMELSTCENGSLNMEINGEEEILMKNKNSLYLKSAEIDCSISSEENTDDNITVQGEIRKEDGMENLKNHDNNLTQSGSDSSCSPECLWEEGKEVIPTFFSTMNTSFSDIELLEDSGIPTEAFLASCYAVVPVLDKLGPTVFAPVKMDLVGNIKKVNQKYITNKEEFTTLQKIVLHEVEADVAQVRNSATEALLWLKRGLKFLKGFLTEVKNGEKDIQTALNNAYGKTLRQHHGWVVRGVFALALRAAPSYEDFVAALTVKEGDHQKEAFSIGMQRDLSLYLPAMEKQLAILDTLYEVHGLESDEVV
UniProt Q99470: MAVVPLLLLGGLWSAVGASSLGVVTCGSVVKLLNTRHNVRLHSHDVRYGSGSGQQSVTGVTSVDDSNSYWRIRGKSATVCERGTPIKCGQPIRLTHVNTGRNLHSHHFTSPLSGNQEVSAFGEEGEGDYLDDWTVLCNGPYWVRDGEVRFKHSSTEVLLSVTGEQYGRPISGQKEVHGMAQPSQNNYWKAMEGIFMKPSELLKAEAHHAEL
UniProt Q96SB8: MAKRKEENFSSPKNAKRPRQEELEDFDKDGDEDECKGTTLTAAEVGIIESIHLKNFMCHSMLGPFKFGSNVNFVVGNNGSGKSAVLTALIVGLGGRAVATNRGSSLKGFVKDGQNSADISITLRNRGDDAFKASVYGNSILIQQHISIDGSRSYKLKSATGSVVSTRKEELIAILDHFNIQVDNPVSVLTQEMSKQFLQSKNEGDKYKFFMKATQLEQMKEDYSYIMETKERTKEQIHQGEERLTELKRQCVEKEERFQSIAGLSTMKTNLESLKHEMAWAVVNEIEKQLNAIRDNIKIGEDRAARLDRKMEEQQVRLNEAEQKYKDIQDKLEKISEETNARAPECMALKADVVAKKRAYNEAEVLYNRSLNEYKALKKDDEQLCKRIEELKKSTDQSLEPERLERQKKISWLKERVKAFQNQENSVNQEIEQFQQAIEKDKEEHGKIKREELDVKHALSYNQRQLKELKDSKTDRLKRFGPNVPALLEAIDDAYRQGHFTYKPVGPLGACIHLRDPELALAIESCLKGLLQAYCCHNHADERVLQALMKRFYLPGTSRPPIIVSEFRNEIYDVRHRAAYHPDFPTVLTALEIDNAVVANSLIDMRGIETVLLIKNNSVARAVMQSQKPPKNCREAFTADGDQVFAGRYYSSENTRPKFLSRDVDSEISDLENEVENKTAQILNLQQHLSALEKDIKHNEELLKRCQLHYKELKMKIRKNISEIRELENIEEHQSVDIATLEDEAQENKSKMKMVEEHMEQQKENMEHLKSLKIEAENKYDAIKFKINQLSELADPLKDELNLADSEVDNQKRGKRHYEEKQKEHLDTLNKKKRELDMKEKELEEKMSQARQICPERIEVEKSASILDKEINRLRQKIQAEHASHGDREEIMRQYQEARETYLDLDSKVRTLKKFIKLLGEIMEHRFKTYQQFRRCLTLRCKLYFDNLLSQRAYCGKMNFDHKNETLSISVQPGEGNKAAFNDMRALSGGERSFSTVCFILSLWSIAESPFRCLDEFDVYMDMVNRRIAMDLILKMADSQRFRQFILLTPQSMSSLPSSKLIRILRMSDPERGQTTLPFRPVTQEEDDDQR
UniProt Q96GY3: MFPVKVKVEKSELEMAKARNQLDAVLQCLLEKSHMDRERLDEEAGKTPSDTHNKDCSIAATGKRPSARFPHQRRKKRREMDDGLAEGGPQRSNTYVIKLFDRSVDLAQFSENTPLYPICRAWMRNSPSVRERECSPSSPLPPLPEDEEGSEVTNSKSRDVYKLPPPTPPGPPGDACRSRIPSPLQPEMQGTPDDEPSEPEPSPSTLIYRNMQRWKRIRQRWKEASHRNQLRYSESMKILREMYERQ
UniProt Q96I23: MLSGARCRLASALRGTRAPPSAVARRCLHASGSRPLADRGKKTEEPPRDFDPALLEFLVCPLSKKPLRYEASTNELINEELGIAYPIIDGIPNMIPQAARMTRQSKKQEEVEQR
UniProt Q96P48: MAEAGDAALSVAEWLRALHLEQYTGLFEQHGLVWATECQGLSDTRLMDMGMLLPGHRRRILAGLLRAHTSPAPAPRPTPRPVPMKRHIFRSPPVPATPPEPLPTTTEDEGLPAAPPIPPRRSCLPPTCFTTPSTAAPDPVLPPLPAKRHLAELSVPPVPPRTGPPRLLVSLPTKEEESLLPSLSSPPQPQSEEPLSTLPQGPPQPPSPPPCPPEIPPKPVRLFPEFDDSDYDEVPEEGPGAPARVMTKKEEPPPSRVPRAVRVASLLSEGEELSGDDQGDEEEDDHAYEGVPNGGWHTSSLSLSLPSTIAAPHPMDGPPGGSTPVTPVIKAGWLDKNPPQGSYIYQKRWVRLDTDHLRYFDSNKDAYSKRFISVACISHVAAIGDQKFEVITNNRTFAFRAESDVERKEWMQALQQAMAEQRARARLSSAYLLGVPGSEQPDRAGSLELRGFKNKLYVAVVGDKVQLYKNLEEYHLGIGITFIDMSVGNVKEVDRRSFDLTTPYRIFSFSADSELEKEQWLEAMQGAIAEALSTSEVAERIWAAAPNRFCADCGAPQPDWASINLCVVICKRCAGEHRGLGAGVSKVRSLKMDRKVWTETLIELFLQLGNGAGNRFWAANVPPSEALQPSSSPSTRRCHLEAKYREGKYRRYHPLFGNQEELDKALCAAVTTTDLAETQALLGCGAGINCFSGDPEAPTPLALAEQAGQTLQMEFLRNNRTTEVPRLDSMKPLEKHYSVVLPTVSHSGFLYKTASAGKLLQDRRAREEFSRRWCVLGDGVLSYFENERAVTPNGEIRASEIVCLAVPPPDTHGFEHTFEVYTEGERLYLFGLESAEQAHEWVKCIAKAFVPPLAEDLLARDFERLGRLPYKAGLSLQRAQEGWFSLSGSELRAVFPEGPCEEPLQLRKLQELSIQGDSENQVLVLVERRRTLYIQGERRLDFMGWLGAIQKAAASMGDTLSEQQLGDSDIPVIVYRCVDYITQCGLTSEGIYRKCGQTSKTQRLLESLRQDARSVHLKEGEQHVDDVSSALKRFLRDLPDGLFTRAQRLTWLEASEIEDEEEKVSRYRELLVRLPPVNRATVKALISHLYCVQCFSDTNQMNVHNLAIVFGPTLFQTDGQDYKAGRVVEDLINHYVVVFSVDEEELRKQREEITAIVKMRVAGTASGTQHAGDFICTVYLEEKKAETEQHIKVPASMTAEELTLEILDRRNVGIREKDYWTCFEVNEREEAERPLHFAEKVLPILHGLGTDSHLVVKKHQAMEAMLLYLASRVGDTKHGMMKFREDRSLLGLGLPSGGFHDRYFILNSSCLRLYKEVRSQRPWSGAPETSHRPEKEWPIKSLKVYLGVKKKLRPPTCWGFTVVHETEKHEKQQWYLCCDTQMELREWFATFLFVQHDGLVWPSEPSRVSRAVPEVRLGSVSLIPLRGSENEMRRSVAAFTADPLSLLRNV
UniProt Q96I25: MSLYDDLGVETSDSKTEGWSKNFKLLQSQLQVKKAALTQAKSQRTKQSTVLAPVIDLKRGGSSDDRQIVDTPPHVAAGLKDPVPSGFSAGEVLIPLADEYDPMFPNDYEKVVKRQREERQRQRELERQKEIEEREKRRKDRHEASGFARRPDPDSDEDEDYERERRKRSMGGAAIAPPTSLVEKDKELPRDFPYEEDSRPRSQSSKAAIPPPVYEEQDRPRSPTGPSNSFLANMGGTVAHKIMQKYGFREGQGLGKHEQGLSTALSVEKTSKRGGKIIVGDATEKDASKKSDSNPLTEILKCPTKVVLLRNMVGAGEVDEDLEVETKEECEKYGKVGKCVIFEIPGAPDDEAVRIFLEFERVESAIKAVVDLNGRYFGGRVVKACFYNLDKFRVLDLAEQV
UniProt Q96I99: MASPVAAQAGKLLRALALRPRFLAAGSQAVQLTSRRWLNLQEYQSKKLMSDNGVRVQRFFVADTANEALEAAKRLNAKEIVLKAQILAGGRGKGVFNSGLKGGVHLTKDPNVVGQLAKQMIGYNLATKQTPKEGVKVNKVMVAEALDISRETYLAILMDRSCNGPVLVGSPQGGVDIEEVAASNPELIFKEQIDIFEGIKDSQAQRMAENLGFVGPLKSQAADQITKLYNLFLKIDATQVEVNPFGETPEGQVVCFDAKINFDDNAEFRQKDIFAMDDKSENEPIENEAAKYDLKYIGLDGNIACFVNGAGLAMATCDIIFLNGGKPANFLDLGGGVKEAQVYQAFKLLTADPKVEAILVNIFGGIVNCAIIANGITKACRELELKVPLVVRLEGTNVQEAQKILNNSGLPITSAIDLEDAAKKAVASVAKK
UniProt Q96IC2: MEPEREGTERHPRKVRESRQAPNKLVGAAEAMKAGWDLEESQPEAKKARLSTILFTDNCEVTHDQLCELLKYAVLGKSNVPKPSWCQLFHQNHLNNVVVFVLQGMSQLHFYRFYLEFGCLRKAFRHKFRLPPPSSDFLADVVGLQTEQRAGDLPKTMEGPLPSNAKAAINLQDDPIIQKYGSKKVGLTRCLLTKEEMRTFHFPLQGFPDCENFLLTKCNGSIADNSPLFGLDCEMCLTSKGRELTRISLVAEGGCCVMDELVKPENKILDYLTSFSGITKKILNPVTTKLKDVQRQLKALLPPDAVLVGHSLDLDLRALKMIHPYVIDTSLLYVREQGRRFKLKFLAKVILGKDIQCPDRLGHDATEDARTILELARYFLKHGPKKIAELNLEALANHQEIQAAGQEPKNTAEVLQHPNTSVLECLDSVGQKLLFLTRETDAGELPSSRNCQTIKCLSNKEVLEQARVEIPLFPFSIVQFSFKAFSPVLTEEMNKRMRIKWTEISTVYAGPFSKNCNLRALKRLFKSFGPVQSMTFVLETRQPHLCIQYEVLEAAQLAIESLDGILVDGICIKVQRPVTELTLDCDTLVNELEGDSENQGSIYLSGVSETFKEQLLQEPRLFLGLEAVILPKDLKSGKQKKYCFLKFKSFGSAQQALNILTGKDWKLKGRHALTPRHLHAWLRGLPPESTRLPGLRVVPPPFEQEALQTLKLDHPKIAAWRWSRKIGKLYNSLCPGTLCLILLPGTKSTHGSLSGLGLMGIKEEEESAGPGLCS
UniProt Q96GY0: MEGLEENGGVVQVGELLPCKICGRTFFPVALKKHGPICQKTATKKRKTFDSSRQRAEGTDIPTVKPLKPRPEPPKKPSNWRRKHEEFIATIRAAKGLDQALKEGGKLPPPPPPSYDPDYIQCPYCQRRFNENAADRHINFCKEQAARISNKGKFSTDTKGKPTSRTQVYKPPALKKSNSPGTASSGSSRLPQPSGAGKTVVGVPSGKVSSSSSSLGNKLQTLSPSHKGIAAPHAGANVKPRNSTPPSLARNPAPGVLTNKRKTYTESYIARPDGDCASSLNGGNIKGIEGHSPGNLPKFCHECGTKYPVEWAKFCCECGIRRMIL
UniProt Q96LJ8: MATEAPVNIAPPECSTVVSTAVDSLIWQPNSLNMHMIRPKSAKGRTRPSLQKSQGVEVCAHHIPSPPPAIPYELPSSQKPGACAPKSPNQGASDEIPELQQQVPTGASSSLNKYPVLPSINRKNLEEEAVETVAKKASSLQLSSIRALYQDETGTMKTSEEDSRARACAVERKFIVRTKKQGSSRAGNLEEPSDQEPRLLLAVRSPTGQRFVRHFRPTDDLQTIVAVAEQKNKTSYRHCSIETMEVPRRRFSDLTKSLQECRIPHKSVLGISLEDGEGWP
UniProt Q96S59, whole entry: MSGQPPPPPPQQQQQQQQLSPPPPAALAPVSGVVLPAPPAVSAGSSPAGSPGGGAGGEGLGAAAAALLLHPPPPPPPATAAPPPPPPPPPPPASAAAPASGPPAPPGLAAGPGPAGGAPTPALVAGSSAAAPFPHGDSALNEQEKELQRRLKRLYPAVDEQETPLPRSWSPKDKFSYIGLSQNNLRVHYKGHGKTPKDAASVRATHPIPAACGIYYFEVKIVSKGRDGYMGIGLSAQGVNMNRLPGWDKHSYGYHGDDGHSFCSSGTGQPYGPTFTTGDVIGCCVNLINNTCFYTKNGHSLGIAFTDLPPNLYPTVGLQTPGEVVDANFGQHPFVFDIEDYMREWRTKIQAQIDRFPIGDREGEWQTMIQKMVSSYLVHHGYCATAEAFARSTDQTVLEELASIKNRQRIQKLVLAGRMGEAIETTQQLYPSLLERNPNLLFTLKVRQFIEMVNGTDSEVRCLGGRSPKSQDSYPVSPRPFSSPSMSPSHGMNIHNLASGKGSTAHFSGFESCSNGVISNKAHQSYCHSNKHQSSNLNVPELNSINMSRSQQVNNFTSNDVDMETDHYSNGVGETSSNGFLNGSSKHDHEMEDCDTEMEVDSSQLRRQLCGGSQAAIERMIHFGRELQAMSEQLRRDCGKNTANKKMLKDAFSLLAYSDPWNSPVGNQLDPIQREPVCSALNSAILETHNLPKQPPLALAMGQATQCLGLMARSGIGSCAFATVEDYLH

Each target was assayed with CN[C@@H]1C[C@H]2O[C@@](C)([C@@H]1OC)n1c3ccccc3c3c4c(c5c6ccccc6n2c5c31)C(=O)NC4 [staurosporine] (assay: log2 fold change of tryptic peptide abundance, ligand vs vehicle (limited proteolysis) (log2 ratio); higher = more trypsin-susceptible (destabilized)). Conditions: ligand concentration: 20 uM; sample: K562 cleared lysate; digestion: 4 min, 22 C (HT-PELSA RT4min, Orbitrap Astral).
Work on “VPS39 (peptide sequence: QLQYPNPLPVLSGAELEK, peptide start residue: 394) (UniProt Q96JC1)” yielded a log2 fold change of 0.471. “PLEKHA8 (peptide sequence: MDLVGNIK, peptide start residue: 359) (UniProt Q96JA3)” was tested, and the log2 fold change was -0.242. “UniProt Q96HJ3 (peptide sequence: ALEELNQQLEK, peptide start residue: 164)” gave a log2 fold change of -0.355. “SDF2 (peptide sequence: AEAHHAEL, peptide start residue: 204) (UniProt Q99470)” was tested, and the log2 fold change was 0.358. In the case of “SMC6 (peptide sequence: TAQILNLQQHLSALEK, peptide start residue: 679) (UniProt Q96SB8)”, the log2 fold change is reported as 0.273. In the case of “LIN37 (peptide sequence: REMDDGLAEGGPQR, peptide start residue: 78) (UniProt Q96GY3)”, the log2 fold change is reported as -0.779. With “AJUBA (peptide sequence: LYAQRPAGFGCQESR, peptide start residue: 214) (UniProt Q96IF1)” the log2 fold change was -0.137. “PYURF (peptide sequence: KQEEVEQR, peptide start residue: 107) (UniProt Q96I23)” showed a log2 fold change of -0.144. Work on “UniProt Q96PE1 (peptide sequence: GGGALEK, peptide start residue: 1282)” yielded a log2 fold change of 0.165. “EXOC2 (peptide sequence: WILQLMHSCKEGYVK, peptide start residue: 380) (UniProt Q96KP1)” was tested, and the log2 fold change was 0.457. With “METTL2A (peptide sequence: DYGRYDMAQLR, peptide start residue: 292) (UniProt Q96IZ6)” the log2 fold change was 0.503. “ARAP1 (peptide sequence: VVEDLINHYVVVFSVDEEELRK, peptide start residue: 1127) (UniProt Q96P48)” was tested, and the log2 fold change was 0.681. In the case of “RBM17 (peptide sequence: RPDPDSDEDEDYER, peptide start residue: 150) (UniProt Q96I25)”, the log2 fold change is reported as 0.587. Target “C9orf72 (peptide sequence: NAESGAIDVK, peptide start residue: 74) (UniProt Q96LT7)” has a log2 fold change of -0.179. Target “SUCLG2 (peptide sequence: DPNVVGQLAK, peptide start residue: 109) (UniProt Q96I99)” has a log2 fold change of -0.409. “CLCC1 (peptide sequence: EHPTVVPSHK, peptide start residue: 454) (UniProt Q96S66)” gave a log2 fold change of 0.453. With “ITCH (peptide sequence: SQGQLNEKPLPEGWEMR, peptide start residue: 471) (UniProt Q96J02)” the log2 fold change was -0.321. Target “UniProt Q96JM3 (peptide sequence: KHALFPELPK, peptide start residue: 556)” has a log2 fold change of 0.335. “REXO5 (peptide sequence: LFLGLEAVILPK, peptide start residue: 621) (UniProt Q96IC2)” was tested, and the log2 fold change was -0.312. “UniProt Q96K17 (peptide sequence: TATADDKKLQSSLK, peptide start residue: 31)” showed a log2 fold change of 0.269. Work on “UniProt Q96GY0 (peptide sequence: KHEEFIATIR, peptide start residue: 83)” yielded a log2 fold change of -0.51. “MED15 (peptide sequence: LVSQIEDAMRK, peptide start residue: 19) (UniProt Q96RN5)” showed a log2 fold change of 0.191. Work on “SPG11 (peptide sequence: CSIPIHALEAGIENR, peptide start residue: 526) (UniProt Q96JI7)” yielded a log2 fold change of 0.385. “UBXN10 (peptide sequence: ALYQDETGTMK, peptide start residue: 147) (UniProt Q96LJ8)” was tested, and the log2 fold change was 0.0896. Target “RANBP9 (peptide sequence: HDHEMEDCDTEMEVDSSQLR, peptide start residue: 587) (UniProt Q96S59)” has a log2 fold change of -0.25. “UniProt Q96MY1 (peptide sequence: IQAIIESCSR, peptide start residue: 216)” gave a log2 fold change of -0.167. With “DDX27 (peptide sequence: KSVFDEELTNTSKK, peptide start residue: 745) (UniProt Q96GQ7)” the log2 fold change was -0.257.
